The list shows a part of the results.
What follows are targets tested with COc1ccc(Cn2ccc3cc(C)c(C(=O)NO)cc32)cc1 (assay: dose-dependent thermal stabilisation call (2D-TPP, DLPTP, 10% FDR) (binary (1 = stabilised)); higher = stabilised by the compound). Details: system: HL-60 intact cells; concentration range 0.04-10 µM.
Procedure: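 2D thermal proteome profiling in intact HL-60 cells treated with BRD-3811 (0, 0.04, 0.29, 2, 10 uM) for 90 min at 37 C, then heated 3 min at one of 12 temperatures (42-63.9 C). Soluble protein was quantified by TMT10 MS. The value is the DLPTP call of the paper: dose-dependent thermal stabilisation over all temperatures at 10% FDR (F-test of a dose-response against a flat model); one experiment, one call per tested protein.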

Protein sequences, listed by entry. Tags and fused reporters are not part of them. Lines headed by an entry give the natural chain unless they say otherwise; changes in a name come on top.
UniProt Q9BTV6: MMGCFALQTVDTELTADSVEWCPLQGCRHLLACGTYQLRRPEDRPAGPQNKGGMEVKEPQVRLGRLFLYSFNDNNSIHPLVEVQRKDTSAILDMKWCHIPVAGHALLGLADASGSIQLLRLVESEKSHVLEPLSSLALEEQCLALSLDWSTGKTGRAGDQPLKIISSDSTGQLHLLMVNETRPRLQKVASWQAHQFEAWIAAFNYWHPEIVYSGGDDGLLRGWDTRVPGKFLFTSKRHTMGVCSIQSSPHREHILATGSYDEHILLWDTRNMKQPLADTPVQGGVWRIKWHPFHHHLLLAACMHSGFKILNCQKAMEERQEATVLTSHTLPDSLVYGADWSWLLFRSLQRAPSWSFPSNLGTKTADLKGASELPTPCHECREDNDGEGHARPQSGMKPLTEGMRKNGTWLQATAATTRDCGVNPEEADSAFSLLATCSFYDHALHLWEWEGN
UniProt Q9H0D6: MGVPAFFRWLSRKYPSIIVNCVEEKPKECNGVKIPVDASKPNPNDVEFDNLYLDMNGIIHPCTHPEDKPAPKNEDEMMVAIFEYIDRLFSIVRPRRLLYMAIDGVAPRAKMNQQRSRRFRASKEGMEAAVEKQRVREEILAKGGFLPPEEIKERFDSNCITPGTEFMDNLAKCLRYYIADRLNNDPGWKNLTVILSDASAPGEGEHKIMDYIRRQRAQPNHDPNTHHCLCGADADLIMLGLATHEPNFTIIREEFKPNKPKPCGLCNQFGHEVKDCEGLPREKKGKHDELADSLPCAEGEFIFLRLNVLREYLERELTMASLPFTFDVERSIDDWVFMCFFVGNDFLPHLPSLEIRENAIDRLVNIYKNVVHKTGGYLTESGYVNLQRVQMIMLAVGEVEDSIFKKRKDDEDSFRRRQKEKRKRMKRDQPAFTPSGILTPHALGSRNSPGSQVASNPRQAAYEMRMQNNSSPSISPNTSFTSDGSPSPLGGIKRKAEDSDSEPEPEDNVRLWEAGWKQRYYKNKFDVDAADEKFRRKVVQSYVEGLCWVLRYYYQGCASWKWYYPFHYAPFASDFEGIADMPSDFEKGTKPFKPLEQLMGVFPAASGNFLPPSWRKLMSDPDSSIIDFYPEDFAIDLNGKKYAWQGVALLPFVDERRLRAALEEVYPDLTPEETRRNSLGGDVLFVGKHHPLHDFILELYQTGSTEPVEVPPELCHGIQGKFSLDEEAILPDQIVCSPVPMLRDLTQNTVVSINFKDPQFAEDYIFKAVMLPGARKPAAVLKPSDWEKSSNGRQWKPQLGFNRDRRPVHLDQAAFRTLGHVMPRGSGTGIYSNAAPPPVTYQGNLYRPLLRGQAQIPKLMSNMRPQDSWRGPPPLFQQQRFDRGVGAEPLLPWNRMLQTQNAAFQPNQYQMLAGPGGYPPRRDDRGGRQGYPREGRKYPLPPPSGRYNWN
UniProt O43670: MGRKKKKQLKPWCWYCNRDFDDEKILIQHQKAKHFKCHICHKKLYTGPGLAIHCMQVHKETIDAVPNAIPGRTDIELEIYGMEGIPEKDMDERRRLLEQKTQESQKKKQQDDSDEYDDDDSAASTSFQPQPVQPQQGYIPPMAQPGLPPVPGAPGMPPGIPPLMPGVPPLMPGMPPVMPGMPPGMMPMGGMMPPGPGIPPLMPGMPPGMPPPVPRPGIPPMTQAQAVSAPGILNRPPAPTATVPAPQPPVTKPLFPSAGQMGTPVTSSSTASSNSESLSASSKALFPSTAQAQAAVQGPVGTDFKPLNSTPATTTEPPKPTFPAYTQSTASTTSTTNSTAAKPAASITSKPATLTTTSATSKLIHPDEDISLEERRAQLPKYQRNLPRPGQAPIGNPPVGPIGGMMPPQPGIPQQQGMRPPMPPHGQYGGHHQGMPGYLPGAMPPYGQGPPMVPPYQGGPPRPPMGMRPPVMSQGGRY
UniProt O43829: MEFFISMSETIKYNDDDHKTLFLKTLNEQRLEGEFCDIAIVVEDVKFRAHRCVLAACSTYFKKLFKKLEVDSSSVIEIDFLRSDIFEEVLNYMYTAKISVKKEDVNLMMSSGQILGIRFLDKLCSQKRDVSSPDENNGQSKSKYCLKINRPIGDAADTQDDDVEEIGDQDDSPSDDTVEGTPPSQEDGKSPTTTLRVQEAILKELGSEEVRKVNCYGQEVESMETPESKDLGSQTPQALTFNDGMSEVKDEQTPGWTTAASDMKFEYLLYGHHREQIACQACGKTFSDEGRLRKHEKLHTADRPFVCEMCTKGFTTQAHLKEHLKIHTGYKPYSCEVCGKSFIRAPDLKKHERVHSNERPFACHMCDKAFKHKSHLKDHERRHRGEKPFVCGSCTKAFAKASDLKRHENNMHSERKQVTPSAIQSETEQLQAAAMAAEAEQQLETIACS
UniProt Q8NHG8: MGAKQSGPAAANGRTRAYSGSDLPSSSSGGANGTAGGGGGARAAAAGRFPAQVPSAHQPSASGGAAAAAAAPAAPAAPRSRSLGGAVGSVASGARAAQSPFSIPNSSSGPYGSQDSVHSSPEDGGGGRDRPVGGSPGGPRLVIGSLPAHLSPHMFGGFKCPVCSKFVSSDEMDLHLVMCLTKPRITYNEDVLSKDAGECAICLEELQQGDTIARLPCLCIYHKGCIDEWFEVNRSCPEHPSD
UniProt O15156: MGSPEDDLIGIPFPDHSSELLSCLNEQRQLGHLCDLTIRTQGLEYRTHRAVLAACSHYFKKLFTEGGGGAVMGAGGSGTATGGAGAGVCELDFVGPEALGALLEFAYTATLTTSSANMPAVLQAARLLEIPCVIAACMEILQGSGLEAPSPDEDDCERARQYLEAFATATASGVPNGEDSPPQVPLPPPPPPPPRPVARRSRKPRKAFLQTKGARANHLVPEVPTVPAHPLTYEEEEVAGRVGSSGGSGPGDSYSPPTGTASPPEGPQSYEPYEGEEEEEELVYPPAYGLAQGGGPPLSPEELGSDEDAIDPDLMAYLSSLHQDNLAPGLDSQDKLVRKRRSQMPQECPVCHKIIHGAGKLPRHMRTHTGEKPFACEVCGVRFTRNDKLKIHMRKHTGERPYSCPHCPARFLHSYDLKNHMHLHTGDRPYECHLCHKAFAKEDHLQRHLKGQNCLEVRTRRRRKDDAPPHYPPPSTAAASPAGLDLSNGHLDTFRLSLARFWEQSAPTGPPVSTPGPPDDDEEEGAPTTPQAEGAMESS
UniProt O15498: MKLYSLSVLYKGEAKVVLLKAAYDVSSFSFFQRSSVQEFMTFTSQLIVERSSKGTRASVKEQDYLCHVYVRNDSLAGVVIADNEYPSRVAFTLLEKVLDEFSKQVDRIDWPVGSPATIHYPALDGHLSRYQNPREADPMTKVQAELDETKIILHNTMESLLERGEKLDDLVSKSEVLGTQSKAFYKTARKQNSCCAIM
UniProt Q9H1Z4: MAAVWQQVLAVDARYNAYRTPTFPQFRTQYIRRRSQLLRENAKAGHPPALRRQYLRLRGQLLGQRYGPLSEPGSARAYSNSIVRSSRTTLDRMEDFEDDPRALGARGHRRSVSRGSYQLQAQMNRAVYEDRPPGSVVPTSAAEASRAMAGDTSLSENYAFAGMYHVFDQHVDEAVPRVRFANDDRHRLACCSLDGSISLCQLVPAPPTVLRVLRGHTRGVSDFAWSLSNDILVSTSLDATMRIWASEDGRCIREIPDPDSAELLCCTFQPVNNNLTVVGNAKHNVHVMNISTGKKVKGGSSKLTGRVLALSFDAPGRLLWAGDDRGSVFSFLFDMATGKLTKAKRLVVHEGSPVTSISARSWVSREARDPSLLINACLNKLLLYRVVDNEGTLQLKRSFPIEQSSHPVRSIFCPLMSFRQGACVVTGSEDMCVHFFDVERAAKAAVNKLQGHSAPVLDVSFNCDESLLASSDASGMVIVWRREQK
UniProt Q9H773: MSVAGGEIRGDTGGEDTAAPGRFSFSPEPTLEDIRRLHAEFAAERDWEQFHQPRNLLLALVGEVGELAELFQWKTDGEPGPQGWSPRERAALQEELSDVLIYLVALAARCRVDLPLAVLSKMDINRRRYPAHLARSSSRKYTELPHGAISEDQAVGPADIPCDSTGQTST
UniProt Q9Y4E6, whole entry: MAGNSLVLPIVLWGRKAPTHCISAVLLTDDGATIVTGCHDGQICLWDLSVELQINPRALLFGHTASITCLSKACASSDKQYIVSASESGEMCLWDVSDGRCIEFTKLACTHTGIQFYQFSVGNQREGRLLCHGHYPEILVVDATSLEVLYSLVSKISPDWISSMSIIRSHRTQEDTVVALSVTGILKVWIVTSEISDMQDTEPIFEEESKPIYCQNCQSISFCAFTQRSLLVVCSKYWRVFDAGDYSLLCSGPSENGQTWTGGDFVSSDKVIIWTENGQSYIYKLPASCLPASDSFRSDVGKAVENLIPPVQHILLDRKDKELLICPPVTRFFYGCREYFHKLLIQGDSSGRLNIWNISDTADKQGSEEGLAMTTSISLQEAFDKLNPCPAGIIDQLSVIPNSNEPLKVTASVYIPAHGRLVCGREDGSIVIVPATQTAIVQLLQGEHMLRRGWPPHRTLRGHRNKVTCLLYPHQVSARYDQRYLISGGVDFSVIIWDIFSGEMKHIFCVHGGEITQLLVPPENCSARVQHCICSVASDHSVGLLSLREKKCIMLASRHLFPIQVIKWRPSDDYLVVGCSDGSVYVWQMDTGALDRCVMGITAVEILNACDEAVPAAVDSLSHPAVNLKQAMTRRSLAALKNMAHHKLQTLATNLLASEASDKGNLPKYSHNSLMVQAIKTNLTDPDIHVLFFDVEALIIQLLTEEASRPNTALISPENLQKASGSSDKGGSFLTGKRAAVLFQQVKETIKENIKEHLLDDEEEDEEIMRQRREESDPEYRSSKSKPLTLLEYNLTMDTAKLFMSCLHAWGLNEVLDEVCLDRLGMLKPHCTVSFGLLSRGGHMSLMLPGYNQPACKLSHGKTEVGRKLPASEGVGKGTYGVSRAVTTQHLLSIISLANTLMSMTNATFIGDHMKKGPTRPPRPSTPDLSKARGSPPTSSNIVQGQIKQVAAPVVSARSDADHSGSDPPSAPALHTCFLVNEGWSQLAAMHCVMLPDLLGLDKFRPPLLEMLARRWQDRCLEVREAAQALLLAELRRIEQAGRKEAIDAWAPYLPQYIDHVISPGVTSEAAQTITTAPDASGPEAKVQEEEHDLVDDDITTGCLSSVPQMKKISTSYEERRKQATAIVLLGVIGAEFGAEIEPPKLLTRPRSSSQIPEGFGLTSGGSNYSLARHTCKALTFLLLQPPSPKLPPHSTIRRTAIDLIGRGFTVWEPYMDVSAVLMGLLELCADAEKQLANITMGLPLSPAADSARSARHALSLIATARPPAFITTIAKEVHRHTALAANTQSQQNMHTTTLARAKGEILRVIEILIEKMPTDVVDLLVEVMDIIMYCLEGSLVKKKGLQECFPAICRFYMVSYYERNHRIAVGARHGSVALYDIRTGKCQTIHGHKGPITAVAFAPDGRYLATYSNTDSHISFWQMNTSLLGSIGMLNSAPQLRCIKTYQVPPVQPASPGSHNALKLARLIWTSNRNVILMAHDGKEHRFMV
UniProt A2A288: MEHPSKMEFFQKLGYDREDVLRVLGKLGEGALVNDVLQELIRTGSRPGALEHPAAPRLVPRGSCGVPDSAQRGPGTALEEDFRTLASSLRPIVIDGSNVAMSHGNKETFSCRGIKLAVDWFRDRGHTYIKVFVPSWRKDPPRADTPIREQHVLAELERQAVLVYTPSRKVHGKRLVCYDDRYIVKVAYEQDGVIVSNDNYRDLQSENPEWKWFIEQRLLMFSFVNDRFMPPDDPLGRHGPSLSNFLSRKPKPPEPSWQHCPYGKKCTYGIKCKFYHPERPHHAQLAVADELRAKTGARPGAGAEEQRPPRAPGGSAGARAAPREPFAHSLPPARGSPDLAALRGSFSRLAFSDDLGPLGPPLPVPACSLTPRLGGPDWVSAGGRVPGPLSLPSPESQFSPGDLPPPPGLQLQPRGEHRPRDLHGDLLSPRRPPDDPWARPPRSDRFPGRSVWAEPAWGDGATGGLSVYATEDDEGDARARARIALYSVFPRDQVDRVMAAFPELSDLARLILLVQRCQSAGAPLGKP
UniProt Q8TEB1, whole entry: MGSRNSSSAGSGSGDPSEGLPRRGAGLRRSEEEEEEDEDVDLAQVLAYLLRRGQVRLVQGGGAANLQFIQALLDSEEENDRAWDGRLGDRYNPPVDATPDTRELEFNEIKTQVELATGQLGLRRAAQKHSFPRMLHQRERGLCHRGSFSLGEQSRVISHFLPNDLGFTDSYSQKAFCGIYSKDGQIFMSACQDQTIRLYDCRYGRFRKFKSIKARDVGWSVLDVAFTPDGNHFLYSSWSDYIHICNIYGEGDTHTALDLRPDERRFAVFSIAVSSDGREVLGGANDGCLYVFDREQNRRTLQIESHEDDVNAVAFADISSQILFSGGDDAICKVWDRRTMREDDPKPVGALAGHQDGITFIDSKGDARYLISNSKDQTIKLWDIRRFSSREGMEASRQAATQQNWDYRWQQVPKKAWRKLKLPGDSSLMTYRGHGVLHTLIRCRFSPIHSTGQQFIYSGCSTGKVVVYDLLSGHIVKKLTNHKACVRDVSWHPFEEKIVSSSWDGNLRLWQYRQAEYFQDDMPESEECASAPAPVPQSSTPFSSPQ

Target | dose-dependent thermal stabilisation call
ZFPL1 (UniProt O95159) | inactive: 0
WDR85 (UniProt Q9BTV6) | inactive: 0
XRCC5 (UniProt P13010) | inactive: 0
XRN2 (UniProt Q9H0D6) | inactive: 0
ZNF207 (UniProt O43670) | inactive: 0
ZFP161 (UniProt O43829) | inactive: 0
ZNF629 (UniProt Q9UEG4) | inactive: 0
ZNRF2 (UniProt Q8NHG8) | inactive: 0
ZBTB7B (UniProt O15156) | inactive: 0
YKT6 (UniProt O15498) | inactive: 0
WDR13 (UniProt Q9H1Z4) | inactive: 0
XTP3TPA (UniProt Q9H773) | inactive: 0
WDR7 (UniProt Q9Y4E6) | inactive: 0
ZNF622 (UniProt Q969S3) | inactive: 0
XYLB (UniProt O75191) | inactive: 0
ZC3H12D (UniProt A2A288) | inactive: 0
WDR23 (UniProt Q8TEB1) | inactive: 0
XPO4 (UniProt Q9C0E2) | inactive: 0
YLPM1 (UniProt P49750) | inactive: 0

Another view of part of the listing above.

| Target | dose-dependent thermal stabilisation call |
| --- | --- |
| ZNRF2 (UniProt Q8NHG8) | inactive: 0 |
| WDR7 (UniProt Q9Y4E6) | inactive: 0 |
